Measured values taken from patent US7235531B2 (Takeda Pharmaceutical Company, priority 1999, dated 2007).

Experiment: Boc solid-phase peptide synthesis; p-methyl BHA resin; NMP-HOBt
Details: whole synthesis, scale 0.14 g resin cleaved (0.5 mmol synthesis)

Substance TGKASQFFGLM-NH2 has an isolated mass of 26 mg.

No end group written: not given here.
